Data reported in US10934364B2, “Method for in vivo expansion of T regulatory cells” (UNIVERSITY OF MIAMI, priority 2009, dated 2021).
For at least one compound, name, drawing or mass did not settle the structure.

System: TNFR25 induced Treg proliferation
Assay: TNFR25 induced Treg proliferation in vivo in the presence of signalling inhibitors
Conditions: inhibitor i.p. day -1 through day 4, 4C12 day 0

CO[C@H]1C[C@@H]2CC[C@@H](C)[C@@](O)(O2)C(=O)C(=O)N2CCCC[C@H]2C(=O)O[C@H]([C@H](C)C[C@@H]2CC[C@@H](O)[C@H](OC)C2)CC(=O)[C@H](C)/C=C(\C)[C@@H](O)[C@@H](OC)C(=O)[C@H](C)C[C@H](C)/C=C/C=C/C=C/1C [rapamycin]
TNFR25 induced Treg proliferation in the presence of the inhibitor: unchanged

C=CC[C@@H]1/C=C(\C)C[C@H](C)C[C@H](OC)[C@H]2O[C@@](O)(C(=O)C(=O)N3CCCC[C@H]3C(=O)O[C@H](/C(C)=C/[C@@H]3CC[C@@H](O)[C@H](OC)C3)[C@H](C)[C@@H](O)CC1=O)[C@H](C)C[C@@H]2OC [FK506]
TNFR25 induced Treg proliferation in the presence of the inhibitor: fails to induce Treg proliferation
